Measured values published in the supplement of paper PMC10849652.
The list shows a part of the results.

Amino acid sequences for entries named in this document (tags omitted). A change or cut given only in a name is not applied to a line headed by its entry.
UniProt O95684: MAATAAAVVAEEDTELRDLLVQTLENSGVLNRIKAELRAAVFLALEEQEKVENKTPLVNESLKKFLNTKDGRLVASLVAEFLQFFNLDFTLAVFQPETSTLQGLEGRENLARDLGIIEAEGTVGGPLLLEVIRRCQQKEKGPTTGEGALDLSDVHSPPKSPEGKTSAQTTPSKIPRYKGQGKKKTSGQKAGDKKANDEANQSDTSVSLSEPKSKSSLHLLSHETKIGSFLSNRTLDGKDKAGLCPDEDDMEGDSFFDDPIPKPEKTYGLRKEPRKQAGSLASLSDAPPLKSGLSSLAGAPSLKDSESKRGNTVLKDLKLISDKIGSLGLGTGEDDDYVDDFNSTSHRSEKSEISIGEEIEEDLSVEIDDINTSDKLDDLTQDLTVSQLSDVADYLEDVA
UniProt Q96SL8: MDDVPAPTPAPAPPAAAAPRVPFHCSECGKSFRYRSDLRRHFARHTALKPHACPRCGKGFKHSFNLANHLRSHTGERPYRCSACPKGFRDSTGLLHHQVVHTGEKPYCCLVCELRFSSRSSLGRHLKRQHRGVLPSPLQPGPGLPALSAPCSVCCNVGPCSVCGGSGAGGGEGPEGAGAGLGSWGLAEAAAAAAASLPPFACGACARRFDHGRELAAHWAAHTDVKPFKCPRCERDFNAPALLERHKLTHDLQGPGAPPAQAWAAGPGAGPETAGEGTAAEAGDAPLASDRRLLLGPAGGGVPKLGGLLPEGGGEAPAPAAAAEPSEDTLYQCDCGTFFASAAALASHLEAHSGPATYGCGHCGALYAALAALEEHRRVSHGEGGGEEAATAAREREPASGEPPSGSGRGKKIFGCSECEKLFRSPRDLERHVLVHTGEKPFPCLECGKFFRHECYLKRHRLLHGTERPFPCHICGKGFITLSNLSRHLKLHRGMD
UniProt Q53R41: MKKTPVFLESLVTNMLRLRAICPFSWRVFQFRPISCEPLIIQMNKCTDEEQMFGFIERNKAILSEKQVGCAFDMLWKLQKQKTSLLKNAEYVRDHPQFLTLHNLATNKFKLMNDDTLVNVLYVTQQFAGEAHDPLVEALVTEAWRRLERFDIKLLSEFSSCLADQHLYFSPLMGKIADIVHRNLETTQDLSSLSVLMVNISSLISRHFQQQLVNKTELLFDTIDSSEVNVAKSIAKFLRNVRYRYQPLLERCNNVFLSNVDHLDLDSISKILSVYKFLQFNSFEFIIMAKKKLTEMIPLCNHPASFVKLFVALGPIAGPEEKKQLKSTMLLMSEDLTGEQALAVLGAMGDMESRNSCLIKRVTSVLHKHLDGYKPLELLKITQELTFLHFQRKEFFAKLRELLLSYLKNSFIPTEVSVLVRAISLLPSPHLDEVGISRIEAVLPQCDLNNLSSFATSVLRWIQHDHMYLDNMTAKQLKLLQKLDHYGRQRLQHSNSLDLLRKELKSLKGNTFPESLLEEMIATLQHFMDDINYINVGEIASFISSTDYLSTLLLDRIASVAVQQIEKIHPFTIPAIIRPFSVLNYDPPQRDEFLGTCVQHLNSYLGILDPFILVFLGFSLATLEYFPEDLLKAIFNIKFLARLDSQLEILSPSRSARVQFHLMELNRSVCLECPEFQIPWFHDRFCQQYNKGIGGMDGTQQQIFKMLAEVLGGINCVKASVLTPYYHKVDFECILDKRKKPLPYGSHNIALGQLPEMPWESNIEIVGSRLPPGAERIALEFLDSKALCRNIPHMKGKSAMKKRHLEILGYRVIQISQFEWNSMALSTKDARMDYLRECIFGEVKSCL
UniProt Q13045: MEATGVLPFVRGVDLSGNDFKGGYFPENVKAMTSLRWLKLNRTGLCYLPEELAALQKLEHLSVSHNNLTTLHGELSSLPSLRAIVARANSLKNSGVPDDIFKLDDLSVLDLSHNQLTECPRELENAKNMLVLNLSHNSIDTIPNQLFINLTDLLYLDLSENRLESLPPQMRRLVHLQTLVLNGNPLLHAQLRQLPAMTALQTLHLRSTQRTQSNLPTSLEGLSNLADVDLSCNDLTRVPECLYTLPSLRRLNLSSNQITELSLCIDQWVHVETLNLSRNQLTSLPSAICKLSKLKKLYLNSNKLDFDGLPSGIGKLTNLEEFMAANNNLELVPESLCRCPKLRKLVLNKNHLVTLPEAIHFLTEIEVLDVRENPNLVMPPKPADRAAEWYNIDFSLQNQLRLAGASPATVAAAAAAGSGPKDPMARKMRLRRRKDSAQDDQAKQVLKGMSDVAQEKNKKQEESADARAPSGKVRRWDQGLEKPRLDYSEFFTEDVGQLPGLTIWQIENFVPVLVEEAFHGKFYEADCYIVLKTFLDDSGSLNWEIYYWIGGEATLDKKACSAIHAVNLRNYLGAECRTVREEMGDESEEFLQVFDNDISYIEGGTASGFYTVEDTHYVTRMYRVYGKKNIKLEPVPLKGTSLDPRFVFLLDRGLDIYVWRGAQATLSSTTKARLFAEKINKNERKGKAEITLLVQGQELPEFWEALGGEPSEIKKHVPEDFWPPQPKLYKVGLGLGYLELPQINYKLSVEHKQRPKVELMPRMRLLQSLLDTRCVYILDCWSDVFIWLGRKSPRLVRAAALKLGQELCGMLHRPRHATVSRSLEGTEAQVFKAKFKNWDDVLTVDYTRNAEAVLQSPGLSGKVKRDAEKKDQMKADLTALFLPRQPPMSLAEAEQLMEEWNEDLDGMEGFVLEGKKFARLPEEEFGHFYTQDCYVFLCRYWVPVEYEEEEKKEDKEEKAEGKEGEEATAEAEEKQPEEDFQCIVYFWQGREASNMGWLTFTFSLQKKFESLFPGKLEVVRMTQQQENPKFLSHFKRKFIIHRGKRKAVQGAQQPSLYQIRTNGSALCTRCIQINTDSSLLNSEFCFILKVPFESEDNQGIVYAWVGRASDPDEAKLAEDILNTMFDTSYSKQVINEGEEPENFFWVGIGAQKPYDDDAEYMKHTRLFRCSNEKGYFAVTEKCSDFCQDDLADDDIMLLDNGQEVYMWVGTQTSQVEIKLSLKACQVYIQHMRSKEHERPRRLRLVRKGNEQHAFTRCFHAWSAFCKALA
UniProt Q9UKB1: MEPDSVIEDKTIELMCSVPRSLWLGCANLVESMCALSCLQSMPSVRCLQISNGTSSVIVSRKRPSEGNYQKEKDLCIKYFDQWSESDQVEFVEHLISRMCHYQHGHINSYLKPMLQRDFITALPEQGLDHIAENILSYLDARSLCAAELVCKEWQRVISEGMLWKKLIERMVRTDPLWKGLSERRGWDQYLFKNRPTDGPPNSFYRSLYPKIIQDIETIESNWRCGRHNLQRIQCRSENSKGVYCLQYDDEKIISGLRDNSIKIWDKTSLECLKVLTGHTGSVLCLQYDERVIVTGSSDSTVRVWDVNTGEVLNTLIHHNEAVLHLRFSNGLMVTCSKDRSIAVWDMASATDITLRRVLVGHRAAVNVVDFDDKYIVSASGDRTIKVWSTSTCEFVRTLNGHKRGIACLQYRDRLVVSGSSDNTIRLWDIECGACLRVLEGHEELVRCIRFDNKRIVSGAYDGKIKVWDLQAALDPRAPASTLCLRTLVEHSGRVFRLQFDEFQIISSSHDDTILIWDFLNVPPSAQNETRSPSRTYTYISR
UniProt P0C5J1: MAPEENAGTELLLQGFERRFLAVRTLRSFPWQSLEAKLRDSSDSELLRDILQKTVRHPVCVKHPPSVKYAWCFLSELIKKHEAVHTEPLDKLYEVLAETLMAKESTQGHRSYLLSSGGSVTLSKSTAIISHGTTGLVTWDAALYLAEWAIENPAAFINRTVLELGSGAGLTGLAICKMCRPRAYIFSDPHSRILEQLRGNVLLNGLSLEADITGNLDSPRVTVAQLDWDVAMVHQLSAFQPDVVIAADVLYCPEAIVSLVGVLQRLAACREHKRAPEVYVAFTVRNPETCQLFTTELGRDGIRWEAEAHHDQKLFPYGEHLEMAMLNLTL
UniProt Q9UHY8: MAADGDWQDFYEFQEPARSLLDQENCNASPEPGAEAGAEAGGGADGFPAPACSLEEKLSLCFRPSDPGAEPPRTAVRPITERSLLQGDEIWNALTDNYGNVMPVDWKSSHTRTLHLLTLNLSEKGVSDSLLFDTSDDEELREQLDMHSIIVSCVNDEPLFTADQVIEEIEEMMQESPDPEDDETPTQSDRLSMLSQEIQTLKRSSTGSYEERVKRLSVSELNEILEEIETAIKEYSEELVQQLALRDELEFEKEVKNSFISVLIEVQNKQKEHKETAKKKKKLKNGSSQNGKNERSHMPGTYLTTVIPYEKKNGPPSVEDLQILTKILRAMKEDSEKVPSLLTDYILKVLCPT
UniProt P01100, whole entry, looked up: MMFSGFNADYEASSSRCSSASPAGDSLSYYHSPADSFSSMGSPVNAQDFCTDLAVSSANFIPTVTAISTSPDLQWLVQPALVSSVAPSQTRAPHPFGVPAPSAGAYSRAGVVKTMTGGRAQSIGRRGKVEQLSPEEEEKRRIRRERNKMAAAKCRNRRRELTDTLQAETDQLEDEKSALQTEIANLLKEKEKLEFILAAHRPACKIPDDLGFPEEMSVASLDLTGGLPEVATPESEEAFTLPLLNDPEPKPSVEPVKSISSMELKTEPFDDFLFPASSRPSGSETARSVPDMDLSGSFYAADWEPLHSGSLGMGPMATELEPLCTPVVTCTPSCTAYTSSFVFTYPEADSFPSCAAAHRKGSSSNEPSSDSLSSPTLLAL
UniProt Q8IVF7, whole entry, looked up: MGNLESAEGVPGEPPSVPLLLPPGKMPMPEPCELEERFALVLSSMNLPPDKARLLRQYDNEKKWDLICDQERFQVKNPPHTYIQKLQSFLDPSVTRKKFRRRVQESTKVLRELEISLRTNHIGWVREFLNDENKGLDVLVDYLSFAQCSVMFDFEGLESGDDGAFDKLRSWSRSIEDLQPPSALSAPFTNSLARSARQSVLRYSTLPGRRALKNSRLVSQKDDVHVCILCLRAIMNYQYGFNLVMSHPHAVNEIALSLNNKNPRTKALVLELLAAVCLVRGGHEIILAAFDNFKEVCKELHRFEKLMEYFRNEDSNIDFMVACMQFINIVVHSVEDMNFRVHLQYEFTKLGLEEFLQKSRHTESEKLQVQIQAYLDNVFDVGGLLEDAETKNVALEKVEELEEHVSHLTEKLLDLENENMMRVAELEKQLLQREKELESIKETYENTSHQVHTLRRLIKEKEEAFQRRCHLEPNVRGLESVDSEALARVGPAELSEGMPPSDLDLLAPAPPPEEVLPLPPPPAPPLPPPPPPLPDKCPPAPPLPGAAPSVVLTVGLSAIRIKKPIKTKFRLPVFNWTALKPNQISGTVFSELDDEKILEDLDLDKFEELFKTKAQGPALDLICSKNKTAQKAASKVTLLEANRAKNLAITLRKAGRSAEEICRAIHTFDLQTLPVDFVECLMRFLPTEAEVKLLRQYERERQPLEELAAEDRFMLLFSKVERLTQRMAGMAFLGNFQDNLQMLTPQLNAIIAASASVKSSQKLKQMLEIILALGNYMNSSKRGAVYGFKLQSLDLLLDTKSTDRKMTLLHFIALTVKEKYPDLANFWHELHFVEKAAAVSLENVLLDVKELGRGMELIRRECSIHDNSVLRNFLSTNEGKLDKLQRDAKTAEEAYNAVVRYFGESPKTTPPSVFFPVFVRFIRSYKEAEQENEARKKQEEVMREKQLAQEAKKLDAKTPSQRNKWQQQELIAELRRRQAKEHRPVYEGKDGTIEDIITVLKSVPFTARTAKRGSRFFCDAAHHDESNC
UniProt Q13642: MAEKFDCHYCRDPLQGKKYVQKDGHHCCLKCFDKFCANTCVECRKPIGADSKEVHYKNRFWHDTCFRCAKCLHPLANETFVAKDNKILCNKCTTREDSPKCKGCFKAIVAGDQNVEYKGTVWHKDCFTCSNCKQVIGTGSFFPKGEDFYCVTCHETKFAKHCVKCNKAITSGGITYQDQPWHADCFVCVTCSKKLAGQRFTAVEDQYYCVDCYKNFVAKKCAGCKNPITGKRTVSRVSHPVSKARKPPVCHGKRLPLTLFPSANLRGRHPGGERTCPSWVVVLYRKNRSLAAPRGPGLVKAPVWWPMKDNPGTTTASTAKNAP
UniProt Q9UKA2: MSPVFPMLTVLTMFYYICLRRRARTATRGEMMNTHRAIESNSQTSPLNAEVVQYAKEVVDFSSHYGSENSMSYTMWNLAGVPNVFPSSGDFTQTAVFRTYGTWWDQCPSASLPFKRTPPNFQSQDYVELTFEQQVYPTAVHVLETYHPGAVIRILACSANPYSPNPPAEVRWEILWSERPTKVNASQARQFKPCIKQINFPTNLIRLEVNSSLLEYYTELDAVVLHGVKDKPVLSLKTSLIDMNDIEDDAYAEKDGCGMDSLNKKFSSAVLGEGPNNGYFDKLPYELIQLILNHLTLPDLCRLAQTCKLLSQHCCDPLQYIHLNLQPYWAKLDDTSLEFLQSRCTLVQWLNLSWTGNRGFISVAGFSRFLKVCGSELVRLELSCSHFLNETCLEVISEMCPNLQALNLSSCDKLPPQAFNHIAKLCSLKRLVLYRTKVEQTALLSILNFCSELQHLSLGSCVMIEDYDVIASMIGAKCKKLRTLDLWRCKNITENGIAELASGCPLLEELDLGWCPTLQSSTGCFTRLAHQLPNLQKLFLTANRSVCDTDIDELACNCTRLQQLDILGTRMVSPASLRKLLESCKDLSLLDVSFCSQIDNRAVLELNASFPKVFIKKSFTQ

Key:
Assay in all cases: log2 fold change, soluble protein after heating vs DMSO (PISA); higher = thermal stabilisation; K562 lysate, 10 uM; active = over 0.2 and 3.5 SD of the protein, either way, in both replicates (recomputed)
vemurafenib = compound: CCCS(=O)(=O)Nc1ccc(F)c(C(=O)c2c[nH]c3ncc(-c4ccc(Cl)cc4)cc23)c1F [vemurafenib]
In short: (§1)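 Quantification was by TMTpro 16plex LC-MS/MS with equalised channel sums, applied to the supernatant after 21,000xg for 90 min. Samples were crude K562 extract at 1 mg/mL protein in PBS pH 7.4 with 1 mM MgCl2, treated with 10 μM compound for 30 min, heated for 3 min across 48°C-58°C, pooled and brought to 0.5% NP-40 at 4°C. Values are log-two fold changes in thermal stability relative to solvent controls, from duplicates.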

defactinib = compound: CNC(=O)c1ccc(Nc2ncc(C(F)(F)F)c(NCc3nccnc3N(C)S(C)(=O)=O)n2)cc1 [defactinib]
In short: as §1

[1] = compound: CCCS(=O)(=O)Nc1ccc(F)c(C(=O)c2c[nH]c3ncc(Cl)cc23)c1F
In short: as §1

[2] = compound: CC[C@@H]1C(=O)N(C)c2cnc(Nc3ccc(C(=O)NC4CCN(C)CC4)cc3OC)nc2N1C1CCCC1
In short: as §1

volasertib = compound: CC[C@@H]1C(=O)N(C)c2cnc(Nc3ccc(C(=O)N[C@H]4CC[C@H](N5CCN(CC6CC6)CC5)CC4)cc3OC)nc2N1C(C)C [volasertib]
In short: as §1

[3] = compound: CCn1cc(-c2ccnc3[nH]c(-c4cccc(CN(C)C)c4)cc23)c(-c2ccc(NC(=O)N(C)C)cc2)n1
In short: as §1

[4] = compound: CN1CCC(CNc2ccc3ncc(-c4cccc(OC(F)(F)F)c4)n3n2)CC1
In short: as §1

alvocidib = compound: CN1CC[C@H](c2c(O)cc(O)c3c(=O)cc(-c4ccccc4Cl)oc23)[C@H](O)C1 [alvocidib]
In short: as §1

encorafenib = compound: COC(=O)N[C@@H](C)CNc1nccc(-c2cn(C(C)C)nc2-c2cc(Cl)cc(NS(C)(=O)=O)c2F)n1 [encorafenib]
In short: as §1

[5] = compound: COC(=O)[C@H](CCSC)NC(=O)C1=C(C=C(C=C1)NC[C@H](CS)N)C2=CC=CC=C2
In short: as §1

[6] = compound: COc1cc2nc(-c3cc(F)ccc3O)nc(N[C@@H]3CNC[C@H]3C(C)(C)O)c2cc1OC
In short: as §1

[7] = compound: CCn1c(C(=O)N(C2CC2)C2CC2)cc2c3c(ncn3C)c(Nc3cc(C)n(C)n3)nc21
In short: as §1

Tubastatin A = compound: CN1CCc2c(c3ccccc3n2Cc2ccc(C(=O)NO)cc2)C1 [Tubastatin A]
In short: as §1

alisertib = compound: COc1cc(Nc2ncc3c(n2)-c2ccc(Cl)cc2C(c2c(F)cccc2OC)=NC3)ccc1C(=O)O [alisertib]
In short: as §1

gefitinib = compound: COc1cc2ncnc(Nc3ccc(F)c(Cl)c3)c2cc1OCCCN1CCOCC1 [gefitinib]
In short: as §1

saracatinib = compound: CN1CCN(CCOc2cc(OC3CCOCC3)c3c(Nc4c(Cl)ccc5c4OCO5)ncnc3c2)CC1 [saracatinib]
In short: as §1

sotrastaurin = compound: CN1CCN(c2nc(C3=C(c4c[nH]c5ccccc45)C(=O)NC3=O)c3ccccc3n2)CC1 [sotrastaurin]
In short: as §1

[8] = compound: CNC(=O)C1=CC=CC=C1NC2=NC(=NC=C2Cl)NC3=C(C=C(C=C3)N4CCOCC4)OC
In short: as §1

[9] = compound: CNc1nc(-c2ccc3c(N)n[nH]c3c2)cc(N2C[C@@H](C(=O)NC3CCCCC3)CC[C@H]2C)n1
In short: as §1

barasertib = compound: CCN(CCCOc1ccc2c(Nc3cc(CC(=O)Nc4cccc(F)c4)[nH]n3)ncnc2c1)CCOP(=O)(O)O [barasertib]
In short: as §1

Measured: log2 fold change

FGFR1OP isoform 3 (UniProt O95684)
inactive: vemurafenib -0.001 | defactinib -0.205

FAM83H (UniProt Q6ZRV2)
inactive: vemurafenib 0.176 | [1] -0.107 | [2] 0.047 | volasertib -0.08 | [3] -0.014 | [4] 0.047 | alvocidib -0.003 | defactinib -0.18 | encorafenib -0.127 | [5] -0.016 | [6] -0.12

FEN1 (UniProt I3L3E9)
inactive: vemurafenib -0.075 | [1] -0.077 | [2] -0.136 | volasertib -0.132 | [7] -0.004 | [3] 0.052 | [4] 0.033 | alvocidib 0.017 | Tubastatin A -0.032 | defactinib 0.044 | encorafenib 0.035 | [5] -0.05 | alisertib 0.016 | [6] 0.003 | gefitinib 0.078

FARP2 (UniProt H7C3M7)
inactive: vemurafenib 0.094 | [2] -0.007 | [7] -0.043 | [3] 0.136 | [4] -0.063 | saracatinib 0.101 | sotrastaurin -0.046 | alvocidib -0.001 | Tubastatin A -0.262 | [8] 0.035 | defactinib -0.177 | [9] 0.036 | encorafenib -0.134 | [5] 0.128 | alisertib -0.033 | gefitinib 0.044

FIZ1 (UniProt Q96SL8)
inactive: [1] 0 | barasertib -0.021 | volasertib -0.169 | [7] -0.132 | [3] -0.135 | [4] -0.002 | alvocidib 0.017 | Tubastatin A -0.129 | alisertib 0.012 | [6] 0.038 | gefitinib -0.058

FASTKD1 (UniProt Q53R41)
inactive: vemurafenib 0.025 | [2] -0.069 | [7] 0.021 | [3] 0.024 | [4] 0.085 | saracatinib 0.04 | sotrastaurin 0 | alvocidib -0.088 | Tubastatin A -0.157 | [8] 0.034 | defactinib -0.002 | [9] -0.06 | encorafenib -0.003 | [5] 0.056 | alisertib -0.001 | gefitinib 0.066

FEM1A (UniProt Q9BSK4)
inactive: vemurafenib 0.071 | [1] -0.002 | [2] -0.398 | volasertib 0.011 | [7] 0.175 | Tubastatin A -0.127 | [8] -0.025 | defactinib -0.057 | encorafenib -0.122 | [5] 0.003 | alisertib 0.087 | [6] 0.021 | gefitinib 0.143

FBXW2 (UniProt Q9UKT8)
inactive: vemurafenib -0.065 | barasertib -0.039 | [7] 0.012 | [3] -0.026 | [4] 0.002 | saracatinib -0.087 | sotrastaurin 0.102 | alvocidib -0.047 | Tubastatin A 0.043 | defactinib 0.094 | [9] -0.139

FLII isoform 2 (UniProt Q13045)
inactive: vemurafenib 0.111 | [1] 0.049 | [2] -0.058 | volasertib -0.045 | defactinib -0.045 | encorafenib -0.028 | [5] 0.285 | [6] -0.026

FAT2 (UniProt Q9NYQ8)
inactive: vemurafenib 0.213 | [1] 0.19 | barasertib -0.001 | [2] 0.016 | volasertib -0.097 | [7] 0.089 | [3] -0.487 | [4] 0.248 | sotrastaurin 0.125 | alvocidib -0.214 | Tubastatin A -0.083 | [8] -0.123 | defactinib -0.034 | encorafenib -0.092 | [5] 0.104 | alisertib -0.023 | [6] 0.043 | gefitinib 0.013

FBXW11 (UniProt Q9UKB1)
inactive: [1] 0.08 | barasertib 0.133 | [2] -0.06 | volasertib -0.117 | [7] -0.02 | [3] -0.086 | [4] -0.095 | saracatinib -0.01 | sotrastaurin 0.073 | alvocidib -0.08 | Tubastatin A 0.044 | [8] 0.171 | [9] -0.083 | encorafenib 0.07 | [5] 0.071 | [6] -0.144

FAM86B2 (UniProt P0C5J1)
inactive: vemurafenib -0.169 | [1] 0.215 | barasertib 0.042 | volasertib -0.045 | [7] 0.079 | Tubastatin A -0.084 | defactinib 0.179 | alisertib 0.15 | [6] 0.2 | gefitinib -0.042

FMR1 isoform 9 (UniProt Q06787)
inactive: [1] -0.013 | barasertib -0.177 | volasertib -0.035 | [7] 0.225 | saracatinib -0.233 | sotrastaurin 0.069 | Tubastatin A -0.046 | [8] 0.223 | [9] -0.011 | [6] 0.002

5 neighbouring entries from above, for reference:
FASTKD1 (UniProt Q53R41)
inactive: vemurafenib 0.025 | [2] -0.069 | [7] 0.021 | [3] 0.024 | [4] 0.085 | saracatinib 0.04 | sotrastaurin 0 | alvocidib -0.088 | Tubastatin A -0.157 | [8] 0.034 | defactinib -0.002 | [9] -0.06 | encorafenib -0.003 | [5] 0.056 | alisertib -0.001 | gefitinib 0.066

FEM1A (UniProt Q9BSK4)
inactive: vemurafenib 0.071 | [1] -0.002 | [2] -0.398 | volasertib 0.011 | [7] 0.175 | Tubastatin A -0.127 | [8] -0.025 | defactinib -0.057 | encorafenib -0.122 | [5] 0.003 | alisertib 0.087 | [6] 0.021 | gefitinib 0.143

FBXW2 (UniProt Q9UKT8)
inactive: vemurafenib -0.065 | barasertib -0.039 | [7] 0.012 | [3] -0.026 | [4] 0.002 | saracatinib -0.087 | sotrastaurin 0.102 | alvocidib -0.047 | Tubastatin A 0.043 | defactinib 0.094 | [9] -0.139

FLII isoform 2 (UniProt Q13045)
inactive: vemurafenib 0.111 | [1] 0.049 | [2] -0.058 | volasertib -0.045 | defactinib -0.045 | encorafenib -0.028 | [5] 0.285 | [6] -0.026

FAT2 (UniProt Q9NYQ8)
inactive: vemurafenib 0.213 | [1] 0.19 | barasertib -0.001 | [2] 0.016 | volasertib -0.097 | [7] 0.089 | [3] -0.487 | [4] 0.248 | sotrastaurin 0.125 | alvocidib -0.214 | Tubastatin A -0.083 | [8] -0.123 | defactinib -0.034 | encorafenib -0.092 | [5] 0.104 | alisertib -0.023 | [6] 0.043 | gefitinib 0.013

(list continues)

FEZ2 (UniProt Q9UHY8)
inactive: [3] 0.096 | [4] 0.121 | alvocidib -0.007

FOS (UniProt P01100)
inactive: [2] 0.132 | [3] 0 | [4] 0.166 | alvocidib -0.102 | encorafenib -0.013 | [5] 0.207

FMNL3 (UniProt Q8IVF7)
inactive: [1] 0.155 | barasertib 0.034 | volasertib 0.102 | [6] -0.071

FASN, A0A0U1RRG3
inactive: [1] 0.111 | volasertib -0.199 | [6] 0

FHL1 isoform 4 (UniProt Q13642)
inactive: [3] 0.57 | [4] 0.065 | alvocidib -0.014

FBXL4 (UniProt Q9UKA2)
inactive: [2] 0.037 | [7] 0.059 | Tubastatin A -0.172 | [8] -0.037 | encorafenib -0.06 | [5] 0.03 | alisertib 0.06 | gefitinib -0.391

FEM1C (UniProt Q96JP0)
inactive: saracatinib 0.095 | [9] 0.052

FILIP1L (UniProt Q4L180)
inactive: [1] -0.114 | [2] -0.081 | volasertib 0.105 | [7] -0.141 | saracatinib -0.04 | Tubastatin A 0.024 | [9] 0.064 | encorafenib 0.022 | [5] -0.216 | [6] 0.044
